Laboratory results reported in patent US10966426B2, “Herbicidal compositions comprising phenylpyrimidines” (BASF SE, priority 2016, dated 2021).
The name of at least one read-out is uncertain.

How the values were obtained:
Papaver rhoeas = assay: greenhouse post-emergence treatment, PAPRH; assay type: in vivo; details: chlorotoluron solo 250 gai/ha, 20 DAT, listed as chlortolurom
Protocol: (§1) The culture containers used were plastic pots containing loamy sand with approximately 3.0% of humus as substrate. The seeds of the test plants were sown separately for each species.
For the post-emergence treatment, the test plants were grown to a plant height of from 3 to 15 cm, depending on the plant habit, and only then treated with the active compounds which had been suspended or emulsified in water. To this end, the test plants were either sown directly, and grown in the same containers, or they were first grown separately as seedlings and transplanted into the test containers a few days prior to treatment.
(§2) Depending on the species, the plants were kept at 10-25° C. and 20-35° C., respectively.
(§3) The test period extended over 2 to 4 weeks. During this time, the plants were tended and their response to the individual treatments was evaluated.
Evaluation was carried out using a scale from 0 to 100. 100 means no emergence of the plants, or complete destruction of at least the above-ground parts, and 0 means no damage or normal course of growth. […]
In the examples below, using the method of S. R. Colby (1967) “Calculating synergistic and antagonistic responses of herbicide combinations”, Weeds 15, p. 22ff., the value E, which is expected if the activity of the individual active compounds is only additive, was calculated. […]

Alopecurus myosuroides = assay: greenhouse post-emergence treatment, ALOMY; assay type: in vivo; details: Table X12, 20 DAT, solo isoproturon (SC 500 g/l) 125 gai/ha
Protocol: as §1
To this end, the test plants were either sown directly, and grown in the same containers, or they were first grown separately as seedlings and transplanted into the test containers a few days prior to treatment.
as §2, §3
Evaluation was carried out using a scale from 0 to 100. 100 means no emergence of the plants, or complete destruction of at least the above-ground parts, and 0 means no damage or normal course of growth. A good herbicidal activity is given at values of at least 70, and very good herbicidal activity is given at values of at least 85.
In the examples, the solvent used was water.
In the examples below, using the method of S. R. Colby (1967) “Calculating synergistic and antagonistic responses of herbicide combinations”, Weeds 15, p. […] E=X+Y−(X·Y/100) where X=effect in percent using herbicide A at an application rate a; • Y=effect in percent using herbicide B at application rate b; • E=expected effect (in %) of herbicide A+herbicide B at application rates a+b.

| Structure (SMILES) | % activity (Papaver rhoeas) [%] | % activity (Alopecurus myosuroides) [%] |
| --- | --- | --- |
| Cc1ccc(NC(=O)N(C)C)cc1Cl [chlorotoluron] | 25 | – |
| CC(C)c1ccc(NC(=O)N(C)C)cc1 [isoproturon] | – | 55 |
